# In ChEMBL document CHEMBL4316593 (Eur J Med Chem, 2019):
# This continues a long series; more values of the same kind are listed elsewhere.
# Legend:
# Format in all cases: cell-based
# Details in all cases: U-87MG ATCC
# [1] = Inhibition of RTK/PI3K/AKT/mTOR signaling in human U87 cells assessed as up regulation of lysophosphatidylcholine acyltransferase 2 gene expression at cytotoxic IC50 measured after 48 hrs relative to control
# [2] = Inhibition of RTK/PI3K/AKT/mTOR signaling in human U87 cells assessed as up regulation of RACK1 gene expression at cytotoxic IC50 measured after 48 hrs relative to control
# [3] = Inhibition of RTK/PI3K/AKT/mTOR signaling in human U87 cells assessed as up regulation of TNFRSF10D gene expression at cytotoxic IC50 measured after 48 hrs relative to control
# [4] = Inhibition of RTK/PI3K/AKT/mTOR signaling in human U87 cells assessed as down regulation of EREG gene expression at cytotoxic IC50 measured after 48 hrs relative to control
# [5] = Inhibition of RTK/PI3K/AKT/mTOR signaling in human U87 cells assessed as up regulation of FOSL2 gene expression at cytotoxic IC50 measured after 48 hrs relative to control
# [6] = Inhibition of RTK/PI3K/AKT/mTOR signaling in human U87 cells assessed as up regulation of PTCHD4 gene expression at cytotoxic IC50 measured after 48 hrs relative to control
# [7] = Inhibition of RTK/PI3K/AKT/mTOR signaling in human U87 cells assessed as up regulation of zinc finger protein 444 gene expression at cytotoxic IC50 measured after 48 hrs relative to control
# [8] = Inhibition of RTK/PI3K/AKT/mTOR signaling in human U87 cells assessed as up regulation of transmembrane protein 59 like gene expression at cytotoxic IC50 measured after 48 hrs relative to control
# [9] = Inhibition of RTK/PI3K/AKT/mTOR signaling in human U87 cells assessed as down regulation of ODC1 gene expression at cytotoxic IC50 measured after 48 hrs relative to control
# [10] = Inhibition of RTK/PI3K/AKT/mTOR signaling in human U87 cells assessed as down regulation of RNF10 gene expression at cytotoxic IC50 measured after 48 hrs relative to control
# [11] = Inhibition of RTK/PI3K/AKT/mTOR signaling in human U87 cells assessed as down regulation of BBS4 gene expression at cytotoxic IC50 measured after 48 hrs relative to control
# [12] = Inhibition of RTK/PI3K/AKT/mTOR signaling in human U87 cells assessed as up regulation of NOD2 gene expression at cytotoxic IC50 measured after 48 hrs relative to control
# [13] = Inhibition of RTK/PI3K/AKT/mTOR signaling in human U87 cells assessed as up regulation of spermatogenesis associated 20 gene expression at cytotoxic IC50 measured after 48 hrs relative to control
# [14] = Inhibition of RTK/PI3K/AKT/mTOR signaling in human U87 cells assessed as up regulation of EGFR gene expression at cytotoxic IC50 measured after 48 hrs relative to control
# [15] = Inhibition of RTK/PI3K/AKT/mTOR signaling in human U87 cells assessed as down regulation of SMCR8 gene expression at cytotoxic IC50 measured after 48 hrs relative to control
# [16] = Inhibition of RTK/PI3K/AKT/mTOR signaling in human U87 cells assessed as up regulation of paired related homeobox 2 gene expression at cytotoxic IC50 measured after 48 hrs relative to control
# [17] = Inhibition of RTK/PI3K/AKT/mTOR signaling in human U87 cells assessed as up regulation of CSPG4 gene expression at cytotoxic IC50 measured after 48 hrs relative to control
# [18] = Inhibition of RTK/PI3K/AKT/mTOR signaling in human U87 cells assessed as up regulation of MN1 gene expression at cytotoxic IC50 measured after 48 hrs relative to control
# [19] = Inhibition of RTK/PI3K/AKT/mTOR signaling in human U87 cells assessed as up regulation of MLLT6 gene expression at cytotoxic IC50 measured after 48 hrs relative to control
# [20] = Inhibition of RTK/PI3K/AKT/mTOR signaling in human U87 cells assessed as up regulation of protocadherin 1 gene expression at cytotoxic IC50 measured after 48 hrs relative to control
# [21] = Inhibition of RTK/PI3K/AKT/mTOR signaling in human U87 cells assessed as up regulation of TMIE gene expression at cytotoxic IC50 measured after 48 hrs relative to control
# [22] = Inhibition of RTK/PI3K/AKT/mTOR signaling in human U87 cells assessed as down regulation of CTGF gene expression at cytotoxic IC50 measured after 48 hrs relative to control
# [23] = Inhibition of RTK/PI3K/AKT/mTOR signaling in human U87 cells assessed as up regulation of SMS gene expression at cytotoxic IC50 measured after 48 hrs relative to control
# [24] = Inhibition of RTK/PI3K/AKT/mTOR signaling in human U87 cells assessed as down regulation of MDFI gene expression at cytotoxic IC50 measured after 48 hrs relative to control
# [25] = Inhibition of RTK/PI3K/AKT/mTOR signaling in human U87 cells assessed as down regulation of ATG3 gene expression at cytotoxic IC50 measured after 48 hrs relative to control
# [26] = Inhibition of RTK/PI3K/AKT/mTOR signaling in human U87 cells assessed as up regulation of RuvB like AAA ATPase 1 gene expression at cytotoxic IC50 measured after 48 hrs relative to control
# [27] = Inhibition of RTK/PI3K/AKT/mTOR signaling in human U87 cells assessed as up regulation of ABCC3 gene expression at cytotoxic IC50 measured after 48 hrs relative to control
# [28] = Inhibition of RTK/PI3K/AKT/mTOR signaling in human U87 cells assessed as down regulation of DCAF5 gene expression at cytotoxic IC50 measured after 48 hrs relative to control
# [29] = Inhibition of RTK/PI3K/AKT/mTOR signaling in human U87 cells assessed as up regulation of calumenin gene expression at cytotoxic IC50 measured after 48 hrs relative to control
# [30] = Inhibition of RTK/PI3K/AKT/mTOR signaling in human U87 cells assessed as down regulation of RNF40 gene expression at cytotoxic IC50 measured after 48 hrs relative to control
# [31] = Inhibition of RTK/PI3K/AKT/mTOR signaling in human U87 cells assessed as down regulation of GIT1 gene expression at cytotoxic IC50 measured after 48 hrs relative to control
# [32] = Inhibition of RTK/PI3K/AKT/mTOR signaling in human U87 cells assessed as down regulation of RANBP10 gene expression at cytotoxic IC50 measured after 48 hrs relative to control
structure (smiles),measurement,setting,value
CC(=O)C(=NNc1ccccc1C#N)C(C)=O,log2FC,[1],0.72
same,log2FC,[2],0.439
same,log2FC,[3],1.65
same,log2FC,[4],-0.539
same,log2FC,[5],0.598
same,log2FC,[6],4.5
same,log2FC,[7],1.29
same,log2FC,[8],1.18
same,log2FC,[9],-0.988
same,log2FC,[10],-0.724
same,log2FC,[11],-1.2
same,log2FC,[12],1.9
same,log2FC,[13],0.827
same,log2FC,[14],0.589
same,log2FC,[15],-0.785
same,log2FC,[16],1.29
same,log2FC,[17],1.76
same,log2FC,[18],2.09
same,log2FC,[19],0.478
same,log2FC,[20],1.39
same,log2FC,[21],2.41
same,log2FC,[22],-2.91
same,log2FC,[23],0.49
same,log2FC,[24],-1.08
same,log2FC,[25],-0.658
same,log2FC,[26],1.08
same,log2FC,[27],1.94
same,log2FC,[28],-0.5
same,log2FC,[29],0.704
same,log2FC,[30],-0.853
same,log2FC,[31],-0.701
same,log2FC,[32],-0.838
